These are yes or no findings as the source states them, for the method shown. Binding seen in cells or lysates may run through a third protein. A result given as binding can be weak or reduced; the word gives no strength.

This test concerns the target T1, sodium hydrogen exchange regulatory factor 1 (NHERF1) (mouse (endogenous in primary osteoclasts)) (UniProt P70441).
T1 sequence: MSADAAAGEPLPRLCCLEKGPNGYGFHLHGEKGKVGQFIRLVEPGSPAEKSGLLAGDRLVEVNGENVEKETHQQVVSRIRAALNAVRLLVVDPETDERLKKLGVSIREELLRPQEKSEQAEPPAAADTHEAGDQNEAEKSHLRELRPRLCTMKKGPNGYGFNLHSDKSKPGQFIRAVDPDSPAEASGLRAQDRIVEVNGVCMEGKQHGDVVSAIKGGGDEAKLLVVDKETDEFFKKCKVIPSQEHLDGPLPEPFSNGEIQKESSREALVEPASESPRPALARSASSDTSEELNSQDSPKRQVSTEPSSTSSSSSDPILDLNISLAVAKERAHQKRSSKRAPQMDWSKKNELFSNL
Nature of the test: co-IP; differentiated osteoclasts (splenocytes, M-CSF and RANKL for 4 days) stimulated with clustered EphB2-Fc for 5 min, cross-linked with dithiobis (succinimidyl) propionate, lysed (50 mM HEPES pH 7.5, 100 mM NaCl, 10 mM EDTA, 10% glycerol, 1% Triton X-100); 300 µg lysate, 4 µg anti-NHERF1 or control IgG, protein A/G-Sepharose, 4°C; Western blot for ephrin B1. Background: In western blotting, separated proteins are transferred to a membrane and probed.

In the case of ephrin B1, the binding result was “binds”.

Values taken from PMC3293909.
